{"sequences": {"note": "By UniProt entry, the sequences of proteins in these tests, tags left out.", "UniProt Q96RU7": "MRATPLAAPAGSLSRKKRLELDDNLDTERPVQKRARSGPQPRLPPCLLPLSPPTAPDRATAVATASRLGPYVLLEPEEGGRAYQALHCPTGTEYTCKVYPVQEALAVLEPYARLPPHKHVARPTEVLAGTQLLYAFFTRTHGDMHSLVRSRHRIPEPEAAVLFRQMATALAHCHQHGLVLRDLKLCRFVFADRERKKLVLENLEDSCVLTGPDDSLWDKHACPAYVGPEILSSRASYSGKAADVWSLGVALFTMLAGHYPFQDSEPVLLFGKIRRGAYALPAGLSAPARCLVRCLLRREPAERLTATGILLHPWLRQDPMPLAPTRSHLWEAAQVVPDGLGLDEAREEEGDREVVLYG"}, "source": "paper PMC5286102", "binders": {"B1": {"name": "FLAG-SNRK (full-length human SNRK with an N-terminal FLAG tag) (enzyme, UniProt Q9NRH2 1-765)", "chain": "MAGFKRGYDGKIAGLYDLDKTLGRGHFAVVKLARHVFTGEKVAVKVIDKTKLDTLATGHLFQEVRCMKLVQHPNIVRLYEVIDTQTKLYLILELGDGGDMFDYIMKHEEGLNEDLAKKYFAQIVHAISYCHKLHVVHRDLKPENVVFFEKQGLVKLTDFGFSNKFQPGKKLTTSCGSLAYSAPEILLGDEYDAPAVDIWSLGVILFMLVCGQPPFQEANDSETLTMIMDCKYTVPSHVSKECKDLITRMLQRDPKRRASLEEIENHPWLQGVDPSPATKYNIPLVSYKNLSEEEHNSIIQRMVLGDIADRDAIVEALETNRYNHITATYFLLAERILREKQEKEIQTRSASPSNIKAQFRQSWPTKIDVPQDLEDDLTATPLSHATVPQSPARAADSVLNGHRSKGLCDSAKKDDLPELAGPALSTVPPASLKPTASGRKCLFRVEEDEEEDEEDKKPMSLSTQVVLRRKPSVTNRLTSRKSAPVLNQIFEEGESDDEFDMDENLPPKLSRLKMNIASPGTVHKRYHRRKSQGRGSSCSSSETSDDDSESRRRLDKDSGFTYSWHRRDSSEGPPGSEGDGGGQSKPSNASGGVDKASPSENNAGGGSPSSGSGGNPTNTSGTTRRCAGPSNSMQLASRSAGELVESLKLMSLCLGSQLHGSTKYIIDPQNGLSFSSVKVQEKSTWKMCISSTGNAGQVPAVGGIKFFSDHMADTTTELERIKSKNLKNNVLQLPLCEKTISVNIQRNPKEGLLCASSPASCCHVI"}, "B2": {"name": "Endogenous SNRK in mouse hearts (enzyme, UniProt Q8VDU5 1-748)", "chain": "MAGFKRGYDGKIAGLYDLDKTLGRGHFAVVKLARHVFTGEKVAVKVIDKTKLDTLATGHLFQEVRCMKLVQHPNIVRLYEVIDTQTKLYLILELGDGGDMFDYIMKHEEGLNEDLAKKYFAQIVHAISYCHKLHVVHRDLKPENVVFFEKQGLVKLTDFGFSNKFQPGKKLTTSCGSLAYSAPEILLGDEYDAPAVDIWSLGVILFMLVCGQPPFQEANDSETLTMIMDCKYTVPPRVSAGCRDLITRMLQRDPKRRASLEEIESHPWLQGVDPSPATKYNIPLVSYKNLSEEEHNSIIQRMVLGDIADRDAIVEALETNRYNHITATYFLLAERILREKQEKEIQTRSASPSNIKAQFRQSWPTKIDVPQDLEDDLTATPLSHATVPQSPARAGDNVLNGHRSKGLCDPAKKDELPELAGPALSTVPPASMKPAASGRKCLFRVEEDEEEDEEDKKPVSLSTQVVLRRKPSVTNRLTSRKSAPVLNQIFEEGESDDEFDMDENLPPKLSRLKMNIASPGTVHKRYHRRKSQGRGSSCSSSETSDDDSESRRRLDKDSGFAYSWHRRDSSEGPPGSEGDGGGQSKPSSGGGVDKASPGEQGTGGGSQGGSGGTPSGTAGSSRRCAGPDSSSPSPASASAAPRGAELVQSLKLVSLCLGSQLHGAKYILDPQKALFSSVKVQEKSTWKMCISAPGPSPSADLDPVRTKKLRNNALQLPLCEKTISVNIQRSRKEGLLCASSPASCCHVI"}, "B3": {"name": "SNRK-VP16 (mammalian two hybrid fusion) (enzyme, UniProt Q9NRH2 1-765)", "chain": "MAGFKRGYDGKIAGLYDLDKTLGRGHFAVVKLARHVFTGEKVAVKVIDKTKLDTLATGHLFQEVRCMKLVQHPNIVRLYEVIDTQTKLYLILELGDGGDMFDYIMKHEEGLNEDLAKKYFAQIVHAISYCHKLHVVHRDLKPENVVFFEKQGLVKLTDFGFSNKFQPGKKLTTSCGSLAYSAPEILLGDEYDAPAVDIWSLGVILFMLVCGQPPFQEANDSETLTMIMDCKYTVPSHVSKECKDLITRMLQRDPKRRASLEEIENHPWLQGVDPSPATKYNIPLVSYKNLSEEEHNSIIQRMVLGDIADRDAIVEALETNRYNHITATYFLLAERILREKQEKEIQTRSASPSNIKAQFRQSWPTKIDVPQDLEDDLTATPLSHATVPQSPARAADSVLNGHRSKGLCDSAKKDDLPELAGPALSTVPPASLKPTASGRKCLFRVEEDEEEDEEDKKPMSLSTQVVLRRKPSVTNRLTSRKSAPVLNQIFEEGESDDEFDMDENLPPKLSRLKMNIASPGTVHKRYHRRKSQGRGSSCSSSETSDDDSESRRRLDKDSGFTYSWHRRDSSEGPPGSEGDGGGQSKPSNASGGVDKASPSENNAGGGSPSSGSGGNPTNTSGTTRRCAGPSNSMQLASRSAGELVESLKLMSLCLGSQLHGSTKYIIDPQNGLSFSSVKVQEKSTWKMCISSTGNAGQVPAVGGIKFFSDHMADTTTELERIKSKNLKNNVLQLPLCEKTISVNIQRNPKEGLLCASSPASCCHVI"}}, "key": {"[1]": {"biological_target": "myc-Trib3 (full-length human Trib3 with an N-terminal myc tag) (human) (UniProt Q96RU7)", "assay": "co-IP; HEK293 cells co-transfected with FLAG-SNRK and myc-Trib3 for 48 h, lysed in Triton-X buffer; anti-FLAG or anti-myc on Protein G Sepharose, 1 h at 4 °C; Western blot"}, "[2]": {"biological_target": "T1, Endogenous Trib3 in mouse hearts (mouse (endogenous in mouse heart)) (UniProt Q8K4K2)", "T1 sequence": "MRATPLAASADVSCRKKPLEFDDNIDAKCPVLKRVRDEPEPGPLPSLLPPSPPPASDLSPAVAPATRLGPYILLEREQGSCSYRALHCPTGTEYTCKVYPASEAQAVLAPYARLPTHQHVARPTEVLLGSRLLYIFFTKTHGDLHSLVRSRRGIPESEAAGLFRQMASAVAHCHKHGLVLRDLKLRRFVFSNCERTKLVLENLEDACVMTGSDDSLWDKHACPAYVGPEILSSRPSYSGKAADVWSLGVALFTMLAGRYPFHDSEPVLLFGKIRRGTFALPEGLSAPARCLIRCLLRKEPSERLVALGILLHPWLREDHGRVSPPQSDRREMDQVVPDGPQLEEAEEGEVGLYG", "assay": "co-IP; endogenous proteins of mouse heart homogenate; IP buffer 25 mM Tris pH 7.5, 150 mM NaCl, 1 mM EDTA, 5% glycerol, NP40; Trib3 antibody overnight, Protein G Agarose; blot for SNRK"}, "[3]": {"biological_target": "Trib3-GAL4 (mammalian two hybrid fusion) (UniProt Q96RU7)", "assay": "two-hybrid; mammalian two hybrid (Checkmate, Promega) in HEK293 cells; SNRK-VP16 and Trib3-GAL4 co-transfected with pG5luc; firefly luciferase normalized to renilla"}}, "note": "No constants are given. Whether binding was seen depends on the method and setting. For part of these data: Binding seen in cells or lysates may run through a third protein. Some results given as binding are weak or reduced against the parent protein; the word gives no strength. For part of these data: Tags and fused reporters may be left off the sequences shown."}
{"binder": "B1", "values": [{"measurement": "binding", "setting": "[1]", "value": "binds"}]}
{"binder": "B2", "values": [{"measurement": "binding", "setting": "[2]", "value": "binds"}]}
{"binder": "B3", "values": [{"measurement": "binding", "setting": "[3]", "value": "binds"}]}
